{"sequences": {"note": "Sequences of proteins named here, by UniProt entry; tags and fusion partners are left off.", "UniProt P13569, whole entry": "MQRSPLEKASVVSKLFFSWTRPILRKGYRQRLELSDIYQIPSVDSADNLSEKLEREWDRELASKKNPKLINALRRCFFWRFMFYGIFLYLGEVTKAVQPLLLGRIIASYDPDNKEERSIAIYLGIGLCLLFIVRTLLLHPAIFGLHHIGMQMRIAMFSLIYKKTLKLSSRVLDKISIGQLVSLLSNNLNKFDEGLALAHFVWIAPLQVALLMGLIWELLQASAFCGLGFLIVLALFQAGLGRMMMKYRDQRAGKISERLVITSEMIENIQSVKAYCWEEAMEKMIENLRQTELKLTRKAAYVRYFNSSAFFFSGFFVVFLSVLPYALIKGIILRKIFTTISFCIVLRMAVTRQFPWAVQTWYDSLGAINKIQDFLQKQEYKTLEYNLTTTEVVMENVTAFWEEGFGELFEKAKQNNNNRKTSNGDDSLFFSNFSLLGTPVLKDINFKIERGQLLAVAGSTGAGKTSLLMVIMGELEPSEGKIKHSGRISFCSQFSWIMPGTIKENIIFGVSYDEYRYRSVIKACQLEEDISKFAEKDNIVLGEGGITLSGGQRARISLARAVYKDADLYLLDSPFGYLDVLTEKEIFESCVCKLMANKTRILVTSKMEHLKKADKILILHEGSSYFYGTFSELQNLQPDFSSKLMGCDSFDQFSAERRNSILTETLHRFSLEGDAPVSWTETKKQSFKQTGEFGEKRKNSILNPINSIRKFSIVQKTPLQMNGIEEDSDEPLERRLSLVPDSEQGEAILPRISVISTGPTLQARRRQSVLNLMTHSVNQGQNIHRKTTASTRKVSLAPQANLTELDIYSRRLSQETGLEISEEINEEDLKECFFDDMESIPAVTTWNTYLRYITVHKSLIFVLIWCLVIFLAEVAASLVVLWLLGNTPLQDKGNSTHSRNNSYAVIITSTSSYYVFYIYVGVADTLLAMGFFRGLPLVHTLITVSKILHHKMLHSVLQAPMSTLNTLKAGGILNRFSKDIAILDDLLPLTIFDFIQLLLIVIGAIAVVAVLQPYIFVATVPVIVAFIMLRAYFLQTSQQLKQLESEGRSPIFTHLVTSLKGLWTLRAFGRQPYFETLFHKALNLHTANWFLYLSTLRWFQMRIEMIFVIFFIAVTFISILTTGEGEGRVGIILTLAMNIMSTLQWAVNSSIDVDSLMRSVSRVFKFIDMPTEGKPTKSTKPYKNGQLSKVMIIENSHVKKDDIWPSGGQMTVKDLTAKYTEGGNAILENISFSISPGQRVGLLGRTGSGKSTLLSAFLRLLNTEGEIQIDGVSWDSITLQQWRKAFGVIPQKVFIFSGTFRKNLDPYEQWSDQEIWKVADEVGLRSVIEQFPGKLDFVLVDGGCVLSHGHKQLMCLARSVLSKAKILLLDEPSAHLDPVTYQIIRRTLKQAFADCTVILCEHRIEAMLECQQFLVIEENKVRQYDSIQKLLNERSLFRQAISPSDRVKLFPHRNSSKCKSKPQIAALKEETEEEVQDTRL"}, "source": "patent US7897610B2", "about": "“Use of benzo[c]quinolizinium derivatives for the treatment of diseases that are linked to smooth muscle cell constriction” (Centre National de la Recherche Scientifique, priority 2002, dated 2011)", "key": {"[1]": {"test_system": "aorta rings isolated from rats", "assay": "Isolated organ technique: relaxation of rat aorta rings pre-contracted in hyperpotassium solution (80 mM KCl)", "format": "cell-based", "details": "rings without endothelium, 10^-4 M", "description": "The experiments are carried out on the thoracic aorta of male rats of Wistar strain weighing 200 to 250 g, 7 to 8 weeks of age. The rat is stunned then placed in the supine position. After thoracotomy, the segment of the aorta comprised between the diaphragm and the right aortic arch is excised. The portion of aorta is immediately placed in a buffered physiological solution of modified Krebs type. The aorta is sectioned into 5 mm rings.\nFor certain preparations, the endothelium is removed mechanically using a needle surrounded by a wire which is turned in the aorta ring.\nThe aorta rings, after dissection, are suspended between two hooks one of which is fixed and the other is mobile. This mounting is placed in a chamber of Plexiglas (Emka Technologies), thermostatically-controlled at 37° C., containing 5 ml of physiological solution oxygenated by a gas mixture (95% O2-5% CO2). The thermostatically-controlled enclosure is supplied by a water bath. The mobile hook is suspended with a sensor connected to the interface (electromechanical transducer). This interface is connected on the one hand to an amplifier (amplification of the signal) and on the other hand to a computer (display and analysis of the signal). The IOX 1.565 program enables the processing and display of the signals on the computer screen. The Data Analyst and Prism 3.0 programs allow analysis of the results. […]"}, "CFTR [2]": {"target": "T1, CFTR (Rattus norvegicus, UniProt P34158)", "T1 construct": "CFTR is detected at the level of its messenger RNA and at the level of protein in the smooth muscles; from tissue; host or cells: smooth muscle cells freshly dissociated from rat aorta", "assay": "Iodide efflux in muscle cell freshly dissociated from rat aorta", "format": "cell-based", "source_text": "(§1) CFTR is detected at the level of its messenger RNA and at the level of protein in the smooth muscles. As negative control the inventors used musculus skeleti of rat at the level of which neither the messenger nor the protein are present. CFTR is detectable in the smooth muscle by immunoprecipitation and phosphorylation in vitro by the protein kinase A. The pharmacology of CFTR has been studied using iodide efflux in muscle cell freshly dissociated from rat aorta. […] Its inhibition profile is similar to that of epithelial CFTR (sensitivity to glibenclamide and DPC but not to Calixarene). […] Moreover, a greater contraction is observed in the KO animals in response to the constricting agents."}, "[3]": {"test_system": "aorta rings of Cftr+/+ mice", "assay": "Vasorelaxation of aorta rings contracted by 80 mM K+, Cftr+/+ mice", "format": "cell-based", "details": "Cftr+/+ rat and mouse tissues", "source_text": "as §1\n(§2) a, graphs showing the vasorelaxation induced by the VIP neuropeptide (Vasoactive Intestinal Polypeptide) of aortas without endothelium of Cftr^+/+ (left) and Cftr^−/− (right) mice. The aorta rings are reversibly contracted by a hyperpotassium solution (solution of 80 mM K^+) then the effect of 300 nM VIP is measured. The absence of endothelium is verified by the addition of acetylcholine (ACh, 10^−5 M).\n(§3) This effect is absent in Cftr^−/− mice (n=6). Average±SEM*P<0.05, ** P<0.01, *** P<0.001."}, "[4]": {"test_system": "aorta rings of Cftr-/- mice", "assay": "Vasorelaxation of aorta rings contracted by 80 mM K+, Cftr-/- mice", "format": "cell-based, mouse", "details": "pre-contracted aorta", "source_text": "as §1, §2, §3"}, "human mammary arteries": {"test_system": "human mammary arteries", "assay": "Vasorelaxant effect on human mammary arteries", "format": "cell-based", "source_text": "The pharmacological effects of the compounds of the benzo[c]quinolizinium family, CFTR activators: 6-hydroxy-10-chlorobenzo[c]quinolizinium chloride (reference name: MPB-07) and 5-butyl-6-hydroxy-10-chlorobenzo[c]quinolizinium chloride (reference name: MPB-91), were studied on aorta rings isolated from rats and from human mammary arteries."}, "CFTR [5]": {"target": "T2, CFTR (Homo sapiens, UniProt P13569)", "T2 construct": "In cells expressing the CFTR protein in an endogenous manner", "details": "epithelial cells; cited from earlier work"}}, "note": "At least one compound was matched to its structure with a doubt left."}
{"compound": "CC(=O)OCC[N+](C)(C)C", "note": "[ACh, acetylcholine, reference compound]", "values": [{"measurement": "response in cholinergic test", "setting": "[1]", "value": "remain contracted"}]}
{"compound": "C=C[C@@]1(C)CC(=O)[C@]2(O)[C@@]3(C)[C@@H](O)CCC(C)(C)[C@@H]3[C@H](O)[C@H](OC(C)=O)[C@@]2(C)O1", "note": "[forskolin]", "values": [{"measurement": "activation of iodide efflux", "setting": "CFTR [2]", "value": "activate iodide efflux"}]}
{"compound": "CCCCc1c(O)c2cccc(Cl)c2[n+]2ccccc12.[Cl-]", "note": "[MPB-91, 5-n-Butyl-10-chloro-6-hydroxybenzo[c]quinolizinium chloride]", "values": [{"measurement": "effect on pre-contracted aorta", "setting": "[3]", "value": "relaxation of the pre-contracted aorta"}, {"measurement": "vasorelaxation in Cftr-/- mice", "setting": "[4]", "value": "very considerably reduced"}, {"measurement": "vasorelaxant effect", "setting": "human mammary arteries", "value": "reversible and slow dose-dependent vasorelaxant effect"}, {"measurement": "activity on the CFTR channel", "setting": "CFTR [5]", "value": "activators of this ion channel"}]}
